Measured values taken from article PMC12501092.
These are yes or no findings as the source states them, for the method shown. In cells and extracts the contact can be indirect. Here binding means that the protein was enriched with, or labelled near, the bait; the list need not be complete.

The chains behind the UniProt entries cited, without tags or fusion partners.
UniProt Q14258: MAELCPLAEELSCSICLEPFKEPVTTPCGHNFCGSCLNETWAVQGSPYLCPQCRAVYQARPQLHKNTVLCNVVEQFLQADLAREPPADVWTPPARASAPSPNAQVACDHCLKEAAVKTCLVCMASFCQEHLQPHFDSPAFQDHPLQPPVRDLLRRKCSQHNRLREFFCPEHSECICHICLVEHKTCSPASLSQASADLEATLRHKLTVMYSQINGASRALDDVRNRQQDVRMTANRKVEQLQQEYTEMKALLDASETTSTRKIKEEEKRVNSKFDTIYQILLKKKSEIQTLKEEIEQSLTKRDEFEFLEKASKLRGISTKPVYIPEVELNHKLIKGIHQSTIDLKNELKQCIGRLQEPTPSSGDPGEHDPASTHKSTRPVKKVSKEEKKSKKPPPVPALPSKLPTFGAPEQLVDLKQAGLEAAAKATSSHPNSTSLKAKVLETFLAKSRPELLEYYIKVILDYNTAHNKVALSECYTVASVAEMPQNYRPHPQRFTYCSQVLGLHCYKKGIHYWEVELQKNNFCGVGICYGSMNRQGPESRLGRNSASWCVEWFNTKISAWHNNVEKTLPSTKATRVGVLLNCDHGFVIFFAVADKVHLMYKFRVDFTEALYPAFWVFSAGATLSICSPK
UniProt Q93009: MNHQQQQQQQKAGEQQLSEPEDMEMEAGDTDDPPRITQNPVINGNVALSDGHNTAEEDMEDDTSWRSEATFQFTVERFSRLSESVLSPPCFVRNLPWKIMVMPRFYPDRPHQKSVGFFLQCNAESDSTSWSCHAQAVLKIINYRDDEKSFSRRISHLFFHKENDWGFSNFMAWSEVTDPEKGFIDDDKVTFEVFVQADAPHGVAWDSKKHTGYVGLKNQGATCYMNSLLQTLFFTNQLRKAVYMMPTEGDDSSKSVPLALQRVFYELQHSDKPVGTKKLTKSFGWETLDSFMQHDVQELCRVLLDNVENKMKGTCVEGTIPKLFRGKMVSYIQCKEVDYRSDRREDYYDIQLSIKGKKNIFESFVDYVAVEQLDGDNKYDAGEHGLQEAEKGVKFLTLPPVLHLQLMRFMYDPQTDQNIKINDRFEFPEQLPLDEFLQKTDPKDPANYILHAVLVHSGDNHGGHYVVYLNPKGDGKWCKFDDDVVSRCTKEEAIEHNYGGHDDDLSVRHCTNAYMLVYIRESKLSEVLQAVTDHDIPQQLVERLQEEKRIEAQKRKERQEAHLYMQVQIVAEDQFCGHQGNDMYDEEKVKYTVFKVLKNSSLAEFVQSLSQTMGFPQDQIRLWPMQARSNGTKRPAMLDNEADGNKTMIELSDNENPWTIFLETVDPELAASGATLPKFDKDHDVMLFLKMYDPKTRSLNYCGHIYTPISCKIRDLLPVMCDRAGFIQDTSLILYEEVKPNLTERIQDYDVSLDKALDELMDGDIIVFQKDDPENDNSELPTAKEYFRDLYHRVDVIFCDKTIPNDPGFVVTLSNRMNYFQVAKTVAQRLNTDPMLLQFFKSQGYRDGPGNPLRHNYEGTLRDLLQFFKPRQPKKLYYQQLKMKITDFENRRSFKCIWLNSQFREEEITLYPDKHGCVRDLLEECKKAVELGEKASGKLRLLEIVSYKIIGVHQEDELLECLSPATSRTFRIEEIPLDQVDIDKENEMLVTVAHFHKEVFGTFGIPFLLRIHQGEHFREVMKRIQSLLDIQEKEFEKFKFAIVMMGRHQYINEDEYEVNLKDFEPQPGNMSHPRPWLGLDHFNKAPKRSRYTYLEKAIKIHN

B1: USP15, endogenous (enzyme, UniProt Q9Y4E8 1-981)
chain: MAEGGAADLDTQRSDIATLLKTSLRKGDTWYLVDSRWFKQWKKYVGFDSWDKYQMGDQNVYPGPIDNSGLLKDGDAQSLKEHLIDELDYILLPTEGWNKLVSWYTLMEGQEPIARKVVEQGMFVKHCKVEVYLTELKLCENGNMNNVVTRRFSKADTIDTIEKEIRKIFSIPDEKETRLWNKYMSNTFEPLNKPDSTIQDAGLYQGQVLVIEQKNEDGTWPRGPSTPKSPGASNFSTLPKISPSSLSNNYNNMNNRNVKNSNYCLPSYTAYKNYDYSEPGRNNEQPGLCGLSNLGNTCFMNSAIQCLSNTPPLTEYFLNDKYQEELNFDNPLGMRGEIAKSYAELIKQMWSGKFSYVTPRAFKTQVGRFAPQFSGYQQQDCQELLAFLLDGLHEDLNRIRKKPYIQLKDADGRPDKVVAEEAWENHLKRNDSIIVDIFHGLFKSTLVCPECAKISVTFDPFCYLTLPLPMKKERTLEVYLVRMDPLTKPMQYKVVVPKIGNILDLCTALSALSGIPADKMIVTDIYNHRFHRIFAMDENLSSIMERDDIYVFEININRTEDTEHVIIPVCLREKFRHSSYTHHTGSSLFGQPFLMAVPRNNTEDKLYNLLLLRMCRYVKISTETEETEGSLHCCKDQNINGNGPNGIHEEGSPSEMETDEPDDESSQDQELPSENENSQSEDSVGGDNDSENGLCTEDTCKGQLTGHKKRLFTFQFNNLGNTDINYIKDDTRHIRFDDRQLRLDERSFLALDWDPDLKKRYFDENAAEDFEKHESVEYKPPKKPFVKLKDCIELFTTKEKLGAEDPWYCPNCKEHQQATKKLDLWSLPPVLVVHLKRFSYSRYMRDKLDTLVDFPINDLDMSEFLINPNAGPCRYNLIAVSNHYGGMGGGHYTAFAKNKDDGKWYYFDDSSVSTASEDQIVSKAAYVLFYQRQDTFSGTGFFPLDRETKGASAATGIPLESDEDSNDNDNDIENENCMHTN

Target: TRIM25, bait of the mass spectrometry screen for deubiquitinases in A549 cells (UniProt Q14258)
Assay: affinity purification with mass spectrometry; A549 cells; product after IP analysed by mass spectrometry (PTM BIO); hits crossed with Ubibrowser 2.0 predictions

Row | Molecule | binding
1 | USP7, endogenous (from UniProt Q93009 1-1102) (enzyme) | binds
2 | B1 | binds
